Patent US20240408081A1, “NOVEL SYNERGISTIC COMBINATIONS AND METHODS OF USE THEREOF FOR TREATING CANCERS” (UNIVERSITE DE BORDEAUX, priority 2021, published 2024)

System: SU-DIPG-IVi-Luc cells implanted in the brainstem
Assay: Orthotopic SU-DIPG-IVi-Luc brainstem glioma model in NSG mice
Format: in vivo, NOD/LtSz-scid IL2R gamma (NSG) mice
Settings: GSK-126 6 mg/kg, Atorvastatin 10 mg/kg; after four treatments
Procedure: For the mouse model, the immortalized SU-DIPG-IV line was used. SU-DIPG-IVi was transduced by a luciferase vector (Luc) with a MOI of 10. Two days after birth, 10^5 SU-DIPG-IVi-Luc cells in 2 μl were injected directly into the brainstem through the neck to a depth of 3 mm using a 2 μl NeuroSyringe (Hamilton Neuros, Dutscher, Bruxelles, Belgium) under anesthesia with 2% isoflurane and 50% oxygen enrichment. […] Tumor growth was evaluated non-invasively with anesthetized mice on a Biospace imager (Biospace Lab, Nesles la Vallée, France) 1-2 days after each treatment.
Prior to treatments, mice were micro-tattooed (Aramis kit, BiosebLab, France). Animals were weighed and then receive an i.p. injection in the lower right quadrant following IACUC recommendations. A 1 ml tuberculin syringe and a 26-gauge needle were used with an injection volume of 200 μl for a 30 g mouse (3 mg/ml), adjusted to actual weight each week. Treatment was done 3 times a week, starting at day 8. Tumor growth was evaluated non-invasively on a Biospace imager (Biospace Lab, Nesles la Vallée, France). The entire procedure was carried out on a heating mat at 37° C. The animals were shaved and anesthetized in sterile condition (under PSM-2) in boxes dedicated to imaging. […]

SMILES: CC(C)c1c(C(=O)Nc2ccccc2)c(-c2ccccc2)c(-c2ccc(F)cc2)n1CC[C@@H](O)C[C@@H](O)CC(=O)O [Atorvastatin]
- tumor growth (bioluminescence): No significant differences
